The numbers were not newly measured in paper PMC3947653 (Peptides, 2013), which cites them from elsewhere.

The subject of this series is normal volunteers. Conditions: cited from earlier work.

Consider `NS(=O)(=O)c1cc(C(=O)O)c(NCc2ccco2)cc1Cl` [furosemide], for which the “tolerability of alkaline formulation, subcutaneous route” value was “tolerated well”.
